# Measured values reported in PubChem BioAssay AID493014 (National Center for Advancing Translational Sciences (NCATS), 2011).
# The list shows a part of the results. Shown are side measurements of this screen, not its main read-out; they come without a call. The list favours compounds with an active or inconclusive main result. Words in brackets tell the shape of the fitted curve; partial curves, single points and poor fits give uncertain potencies.
# Assay: qHTS Assay to Find Inhibitors of Chronic Active B-Cell Receptor Signaling
# Conditions: ABC-DLBCL IkBa-CBG/CBR reporter, luminescence ratio (green luciferase fused to IkBa over red control in TMD8 lymphoma cells), 4 h
# How it was run: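 TMD8 ABC-DLBCL cells carrying doxycycline-inducible green luciferase fused to IkappaBalpha plus unfused red luciferase were exposed to compounds (up to 46 uM) for 4 hrs at 37C. Activity came from the overlap-corrected green/red luminescence ratio.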
# [1] = measured here: CBR red luminescence, cell number
# [2] = measured here: IkBa-CBG green luminescence
Structure (SMILES),AC50 [1],AC50 [2]
COc1ccc(-n2c(CN3CCC(C(N)=O)CC3)nc3ccc([N+](=O)[O-])cc3c2=O)c(OC)c1,"22.4 µM [falling, partial curve, poor fit]",–
CCc1cc2c(=O)c(-c3cscn3)coc2c(CN(C)C)c1O,"3.66 µM [falling, single point]",–
O=C(/C=C/Nc1ccc(F)cc1Br)c1ccccc1,"5.17 µM [falling, partial curve]",–
Brc1ccc(-c2nnc(-c3cccc(Br)c3)o2)cc1,"1.12 µM [rising, full curve]",–
COc1ccc(-c2cc(C(F)F)n3ncc(C(=O)Nc4cc(C)on4)c3n2)cc1,"35.5 µM [falling, single point]",–
COc1cccc(/C=N/NC(=O)c2cc3c(OC)ccc(OC)c3[nH]2)c1O,–,"3.55 µM [falling, single point]"
O=C(NNC(=S)NC(=O)c1ccccc1[N+](=O)[O-])c1ccccc1,"0.146 µM [falling, full curve]",–
CC(=O)c1c(C)[nH]c(C(=O)OCC(=O)NCCc2ccc(Cl)cc2)c1C,"6.51 µM [rising, single point]",–
COc1ccc([N+](=O)[O-])cc1NC1CCCCC1,"15.8 µM [rising, single point]",–
Cc1cc(Sc2nnc(N)s2)c2ccccc2n1,"0.316 µM [falling, full curve, poor fit]",–
COC(=O)c1ccc(NC(=O)CSc2nc(=O)n(Cc3ccco3)c3c2CCC3)cc1,"17.8 µM [falling, partial curve, poor fit]","7.94 µM [rising, partial curve, poor fit]"
CN(Cc1cccc(F)c1)C(=O)c1ccc(NS(=O)(=O)c2ccc3[nH]c(=O)[nH]c3c2)cc1,"1.16 µM [falling, partial curve, poor fit]",–
CN(C)c1nc(Cl)nc(NCCOc2ccccc2)n1,"6.51 µM [rising, partial curve]",–
O=C(Nc1nnc(-c2cccnc2)o1)c1ccccc1Cl,"28.2 µM [falling, partial curve, poor fit]",–
OCCNCc1c(OCc2ccc(Cl)cc2)ccc2ccccc12,"35.5 µM [falling, single point]",–
O=C(NNC(=S)NC(=O)c1ccccc1)c1ccc(O)cc1,"10 µM [falling, partial curve, poor fit]",–

Structure (SMILES),AC50 [1],AC50 [2]
CN(CC(=O)Nc1ccccc1Cl)C(=O)Cn1nnc(-c2ccc(F)cc2)n1,"9.2 µM [rising, partial curve]",–
Cc1ccc(C(=O)Nc2ccc3c(c2)OCCO3)c(C)c1,"6.31 µM [rising, partial curve, poor fit]",–
CCCSc1nc2sc3c(c2c(=O)n1-c1ccc(OC)cc1)CCN(C)C3,"12.6 µM [rising, single point]",–
Cc1cc(OC(=O)c2c(F)cc(F)cc2F)nc(C)n1,"0.562 µM [rising, full curve, poor fit]",–
Cc1ccc(NC(=O)CSc2nnc(COc3ccc(C#N)cc3)n2-c2ccccc2)cc1C,"11.2 µM [falling, single point]",–
COc1ccc(N2CCN(c3oc(-c4ccc(OC)c(OC)c4)nc3C#N)CC2)cc1,"18.4 µM [rising, single point]",–
COc1cccc(-c2nnc3sc(C4CCCCC4)nn23)c1,"10.3 µM [falling, single point]",–
Cn1c(/C=C/c2ccc(Cl)cc2)nc2ccccc2c1=O,"0.316 µM [rising, full curve, poor fit]",–
CN(Cc1cnn(C)c1)Cc1nc(-c2ccc(Cl)cc2)no1,"12.6 µM [rising, partial curve]",–
CCc1c(C)sc(NC(=O)c2cc(-c3ccco3)on2)c1C#N,"31.6 µM [falling, single point]",–
CC1CCN(S(=O)(=O)c2cccc(-c3cn4cc(Cl)ccc4n3)c2)CC1,"6.51 µM [falling, single point]",–
COC(=O)c1ccc(NC(=O)c2ccc(C)cc2)o1,"15.8 µM [falling, partial curve, poor fit]",–
O=C(Nc1ccccc1F)NC1CCCc2ccccc21 (stereo not drawn),"0.0891 µM [falling, full curve, poor fit]",–
O=C(CSc1ccc(-c2nc3ccccc3[nH]2)cn1)Nc1ccc(S(=O)(=O)NC2CC2)cc1,"20.6 µM [falling, partial curve, poor fit]",–
COc1ccccc1-c1cc(C(F)(F)F)nc(S(=O)(=O)CCCC(=O)N2CCOCC2)n1,"3.66 µM [falling, full curve]","3.66 µM [rising, partial curve, poor fit]"
